The other results are listed elsewhere or left out. These are further read-outs of the screen, such as a control signal, another cell line or another target. No call is given for them. Compounds called inactive in the main read-out are mostly missing here. The note in brackets gives the kind of curve behind each potency; many fits are weak.
Test: qHTS Assay to Find Inhibitors of Chronic Active B-Cell Receptor Signaling
Details: ABC-DLBCL IkBa-CBG/CBR reporter, luminescence ratio (green luciferase fused to IkBa over red control in TMD8 lymphoma cells), 4 h
Method in brief: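 Compounds up to 46 uM were incubated four hours with TMD8 cells whose green CBG68 luciferase is fused to IkappaBalpha; red CBR luminescence normalised the signal, and concentration-effect curves were fitted to fusion, red and ratio data.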

[1] = measured here: CBR red luminescence, cell number
[2] = measured here: IkBa-CBG green luminescence

Row | SMILES | AC50 [1] | AC50 [2]
1 | O=C(CCC1COc2ccccc2O1)Nc1ccc(Cl)cn1 (stereo not given) | 29.1 µM [falling, single point] | –
2 | COc1ccc(/C=N/OCC(=O)N2CCCC2)c(OC)c1 | 35.5 µM [falling, single point] | –
3 | CCCNC(=O)c1ccc2c(=O)c(O)c(-c3ccsc3)[nH]c2c1 | 3.16 µM [rising, partial curve, poor fit] | –
4 | COc1cc(OC)cc(C(=O)Nc2nc3ccc(S(C)(=O)=O)cc3s2)c1 | 7.08 µM [falling, full curve] | –
5 | CCOc1cccc(OCCOCCN2CCCC2)c1 | 18.4 µM [falling, single point] | 23.1 µM [rising, partial curve, poor fit]
6 | COc1ccc([N+](=O)[O-])cc1NC(=O)COC(=O)/C=C/c1ccco1 | 5.8 µM [rising, full curve, poor fit] | –
7 | CCOC(=O)CNC(=O)C(NC(=O)C1CCC(C)CC1)C(C)CC (stereo not given) | 0.13 µM [rising, full curve, poor fit] | –
8 | Cc1nonc1CN(C)C(=O)c1ccc(OC2CCN(Cc3ccccn3)CC2)cc1 | 4.47 µM [falling, full curve, poor fit] | –
9 | Cc1ccccc1/C=C/C12NC(=O)CN1c1ccccc1C2(C)C (stereo not given) | 0.355 µM [rising, full curve] | –
10 | CCCCNC(=S)N/N=C/c1cc(C)ccc1C | 25.9 µM [rising, partial curve] | –
11 | CCN1CCN(Cc2ccc(NC(=O)c3ccc(C)c(NC(=O)c4ccc5n[nH]nc5c4)c3)cc2C(F)(F)F)CC1 | 10 µM [falling, partial curve, poor fit] | –
12 | COc1ccc(Cl)cc1NC(=O)NC1CCCCC1 | 5.17 µM [rising, full curve] | –
13 | Cc1cc(=O)n2[nH]c(-c3ccco3)nc2n1 | 5.17 µM [falling, partial curve] | –
14 | O=C(N/N=C/c1ccco1)c1[nH]ncc1Br | 11.2 µM [falling, partial curve] | –
15 | O=C(N/N=C/c1nn(-c2ccccc2)cc1-c1ccc(Cl)cc1)c1ccncc1 | 1.12 µM [rising, full curve, poor fit] | –
16 | C/C(=N\NC(=O)c1ccc(NS(=O)(=O)c2cccs2)cc1)c1ccc2ccccc2c1 | 9.2 µM [falling, partial curve] | –
17 | COc1cc(NS(=O)(=O)c2ccc(Br)cc2)c(OC)cc1NC(=O)c1ccco1 | – | 7.31 µM [rising, partial curve, poor fit]
18 | CC1CN=C(N(Cc2ccccc2)C(=O)Nc2ccccc2)S1 (stereo not given) | 0.517 µM [rising, full curve] | –
19 | CCCn1c(C(=O)OC)cc2c1ccn2-c1ccc(F)cc1 | 1 µM [rising, full curve] | –
20 | Cc1nn(C(C)C(=O)NCCc2cccs2)c(=O)c2nn(-c3ccccc3)c(C)c12 (stereo not given) | 35.5 µM [rising, single point] | –
21 | O=C(Nc1ccc([N+](=O)[O-])cc1)Nc1cnccn1 | 6.31 µM [rising, partial curve] | –
22 | CCOC(=O)C1=C(C)Nc2nnnn2C1c1ccc(OC)c(Br)c1 (stereo not given) | – | 23.1 µM [falling, partial curve, poor fit]

Row | SMILES | AC50 [1] | AC50 [2]
23 | Cc1ccc(S(=O)(=O)N2C(=S)SCC2(C)C)cc1 | 35.5 µM [rising, single point] | –
24 | O=C(NCCc1ccccc1)c1cc(=O)c2ccccc2o1 | 35.5 µM [falling, single point] | –
25 | Cc1ccc(S(=O)(=O)N/N=C2/CC(c3ccccc3)Oc3ccccc32)cc1 (stereo not given) | 1.26 µM [rising, full curve, poor fit] | –
26 | COC(=O)c1sccc1NC(=O)COc1ccc(Cl)cc1Cl | 0.731 µM [rising, partial curve, poor fit] | –
27 | OCCCNc1nc(-c2ccc(Br)cc2)nnc1-c1ccc(Cl)cc1 | 14.6 µM [falling, partial curve, poor fit] | –
28 | COc1ccc(NC(=O)c2ccc(NCC3CCCO3)c([N+](=O)[O-])c2)cc1 (stereo not given) | 0.708 µM [falling, full curve, poor fit] | –
29 | CCOC(=O)Cn1nnnc1C(C(C)C)N(Cc1cccs1)Cc1cc2cc(C)ccc2[nH]c1=O (stereo not given) | 32.6 µM [falling, single point] | –
30 | Clc1ccccc1-c1nnc2sc(CCc3ccccc3)nn12 | 0.58 µM [rising, partial curve, poor fit] | –
31 | COC(=O)/C=C1\SC(=Nc2ccccc2)NC1=O | 16.4 µM [falling, single point] | –
32 | CC(C)(C)c1ccc(C(=O)c2c[nH]c(C(=O)O)c2)cc1 | 15.8 µM [falling, single point] | –
33 | COc1cc(OC)c(N(C)S(=O)(=O)c2cccc(C(=O)NC3=NCCS3)c2)cc1Cl | 35.5 µM [falling, single point] | –
34 | COc1cccc(C(=O)Nc2ccc(N(C)C)cc2)c1OC | 0.58 µM [falling, partial curve, poor fit] | –
35 | CCOc1ncccc1C(=O)OCC(=O)Nc1c(C)cccc1C | 11.6 µM [rising, partial curve] | –
36 | O=C(Nc1nc(-c2ccccc2)ns1)c1ccc(Cl)cc1 | 2.51 µM [falling, full curve] | –
37 | O=C(Nc1ccc(Oc2cccnc2)cc1)c1cccc([N+](=O)[O-])c1 | 0.731 µM [rising, full curve] | –
38 | COc1ccc(C)cc1Nc1n[n+](C)c(-c2c3ccccc3cc3ccccc23)s1 | 12.6 µM [falling, single point] | –
39 | COc1ccc(CNC(=O)C2CC(=O)N(c3ccc(OCC(=O)N4CCCCC4)cc3)C2)cc1 (stereo not given) | 20.6 µM [rising, single point] | –
40 | O=C(CCN1C(=O)C2CCCCC2C1=O)Nc1nc2c(F)cc(F)cc2s1 (stereo not given) | 4.11 µM [falling, partial curve, poor fit] | –
41 | O=C(Nc1ccc(Cl)cc1Cl)N1CCN(c2ncccn2)CC1 | 1.78 µM [rising, partial curve, poor fit] | –
42 | Cc1cc(NC(=O)c2ccc3nccnc3c2)ccc1Br | 3.66 µM [falling, single point] | –
43 | O=C(NCC1CCCO1)c1cccc(NS(=O)(=O)c2ccccc2)c1 (stereo not given) | 18.4 µM [rising, single point] | –
44 | CC1CC(C)CN(C(=O)CSCC(=O)O)C1 (stereo not given) | 0.631 µM [rising, full curve, poor fit] | –

Row | SMILES | AC50 [1] | AC50 [2]
45 | O=C(Cn1c(-c2ccccc2)noc1=O)N1CCC(Cc2ccccc2)CC1 | 5.62 µM [falling, single point] | –
46 | CCOC(=O)Cc1nc2ccccc2[nH]1 | – | 3.26 µM [rising, partial curve, poor fit]
47 | CCOC(=O)c1cc(-c2ccccc2)n(CCC(=O)NCCc2ccc(C)cc2)c1C | 4.47 µM [rising, partial curve, poor fit] | –
48 | C/C(=N\NC(=O)c1ccco1)c1ccc(NC(=O)c2cccs2)cc1 | 23.1 µM [falling, single point] | –
49 | Cc1noc(C)c1NC(=O)Nc1ccc2c(c1)CC(=O)N([C@@H](C)CO)C[C@@H](C)[C@@H](CN(C)C(=O)Nc1cccc3ccccc13)O2 | 10.3 µM [rising, partial curve, poor fit] | –
50 | O=C(COC(=O)CNC(=O)C1CCCCC1)Nc1ccc2ccccc2c1 | 0.326 µM [rising, full curve, poor fit] | –
51 | Cc1ccnc(NS(=O)(=O)c2ccc(NC(=O)c3ccc([N+](=O)[O-])s3)cc2)n1 | 20 µM [rising, single point] | –
52 | CC1CCN(c2nc3ccc(C(=O)NCCCN4CCCCC4)cc3s2)CC1 | 0.631 µM [falling, full curve, poor fit] | –
53 | CC(C)Cn1cnc2c1c(=O)n(CC(=O)O)c(=O)n2Cc1ccccc1 | 3.16 µM [rising, full curve, poor fit] | –
54 | Cc1ccc(C(=O)Nn2c(O)c(C=C3N=c4ccccc4=N3)sc2=S)cc1 | 5.01 µM [falling, full curve, poor fit] | –
55 | Oc1c(Cl)cc(Cl)cc1C=Nc1cc(C(F)(F)F)ccc1N1CCc2ccccc2C1 | 35.5 µM [falling, single point] | –
56 | CCc1cccc(NC(=O)CCNS(=O)(=O)c2ccc3[nH]c(=O)oc3c2)c1 | 2.51 µM [falling, partial curve, poor fit] | –
57 | Cc1onc(-c2ccccc2)c1CNC(=O)C1COc2ccccc2O1 (stereo not given) | 2.82 µM [rising, partial curve, poor fit] | –
58 | Cc1ccc(NC(=O)NCc2ccc3c(c2)OCO3)cc1C | 3.16 µM [falling, partial curve, poor fit] | –
59 | CCN(CC)C(=O)CNc1ccc(C(F)(F)F)cc1[N+](=O)[O-] | 29.1 µM [rising, partial curve, poor fit] | –
60 | Cc1c(OCC(=O)NCCN2CCOCC2)ccc2c3c(c(=O)oc12)CCC3 | 35.5 µM [rising, single point] | –
61 | O=C(NCc1cn2ccccc2n1)c1ccc(Br)o1 | 10.3 µM [falling, partial curve] | –
62 | Cn1c(=O)[nH]c(=O)c2c1nc(Br)n2CC(O)c1ccccc1 (stereo not given) | 12.6 µM [falling, partial curve] | –
63 | CCOC(=O)c1c(CSc2ccccc2)oc2ccc(O)cc12 | 6.51 µM [rising, single point] | –
64 | CCOc1ccc(CCNC(=O)c2cc(-c3ccccc3)c(N3CCOCC3)s2)cc1OCC | 3.55 µM [falling, partial curve, poor fit] | –

Compounds 53–55 from above:
Row | SMILES | AC50 [1] | AC50 [2]
53 | CC(C)Cn1cnc2c1c(=O)n(CC(=O)O)c(=O)n2Cc1ccccc1 | 3.16 µM [rising, full curve, poor fit] | –
54 | Cc1ccc(C(=O)Nn2c(O)c(C=C3N=c4ccccc4=N3)sc2=S)cc1 | 5.01 µM [falling, full curve, poor fit] | –
55 | Oc1c(Cl)cc(Cl)cc1C=Nc1cc(C(F)(F)F)ccc1N1CCc2ccccc2C1 | 35.5 µM [falling, single point] | –
